# Results: the supplement of paper PMC6411743
# Sequences of proteins named here, by UniProt entry; tags and fusion partners are left off.
# UniProt P54709, whole entry: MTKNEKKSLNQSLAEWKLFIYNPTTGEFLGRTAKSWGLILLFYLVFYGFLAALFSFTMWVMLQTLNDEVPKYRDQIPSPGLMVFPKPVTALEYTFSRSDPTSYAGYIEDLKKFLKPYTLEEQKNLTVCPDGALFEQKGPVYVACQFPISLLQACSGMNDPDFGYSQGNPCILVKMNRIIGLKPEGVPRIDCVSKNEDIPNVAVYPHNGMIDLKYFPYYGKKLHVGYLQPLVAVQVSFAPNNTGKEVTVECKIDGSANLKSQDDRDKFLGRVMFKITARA
# ± gives the standard deviation of the averaged measurements. Only a part is listed here, and it is no random draw.
# Biological target: ATP1B3 (UniProt P54709)
# Test: NP40-soluble protein abundance relative to vehicle (solubility fold change) (ratio); higher = more soluble protein in presence of ATP
# Outline: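 Jurkat crude lysate (Dounce-homogenised) was treated with eight concentrations from 0.1 to 10 mM for 10 min at room temperature, then 3 min at 37 °C. It was solubilised with 0.8% NP40 and benzonase (60 min, 4 °C) and ultracentrifuged, and the supernatant was TMT-labelled for LC-MS/MS. Intensities were vsn-normalised, and the value is the fold change against the NP40-processed vehicle per replicate, from three independent experiments.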
compound,measurement,setting,value
Nc1ncnc2c1ncn2[C@@H]1O[C@H](COP(=O)(O)OP(=O)(O)OP(=O)(O)O)[C@@H](O)[C@H]1O [adenosine triphosphate],NP40-soluble protein abundance,concentration: 1mM,0.973 ± 0.098
same,NP40-soluble protein abundance,concentration: 2mM,0.973 ± 0.0084
same,NP40-soluble protein abundance,concentration: 4mM,0.936 ± 0.079
same,NP40-soluble protein abundance,concentration: 6mM,0.9533 ± 0.00095
same,NP40-soluble protein abundance,concentration: 8mM,0.933 ± 0.06
same,NP40-soluble protein abundance,concentration: 10mM,0.908 ± 0.028
